From the supplement of paper PMC7661543
± gives the standard deviation of the averaged measurements. Differences between knockout arms are mostly noise.

Test system: HCC-38
Experiment: relative cell number vs DMSO control (72 h) (% of DMSO); higher = less growth inhibition (more cells)
Protocol: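 QMAP-Seq: a pool of 5 breast cancer cell lines (ZR-75-1, SKBR3, HCC-38, MDA-MB-231, BT-20), each carrying 12 doxycycline-inducible Cas9 sgRNA perturbations (11 knockouts plus non-targeting sgNT), was treated with compounds for 72 h at four 10-fold doses (10 nM-10 uM or 1 nM-1 uM range). Barcodes were amplified and sequenced, and cell number was interpolated from 293T spike-in standard curves. The result is expressed as % of the median of DMSO wells. Two biological replicates.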

N[C@@H](CC(=O)N1CCn2c(nnc2C(F)(F)F)C1)Cc1cc(F)c(F)cc1F [Sitagliptin]
Details | relative cell number
sgRNA knockout: sgATF3, 10 nM | 100 ± 6.7
sgRNA knockout: sgATF3, 100 nM | 96.8 ± 17
sgRNA knockout: sgATF3, 1000 nM | 105 ± 5.7
sgRNA knockout: sgATF3, 10000 nM | 93.3 ± 4
sgRNA knockout: sgATF4, 10 nM | 106 ± 16
sgRNA knockout: sgATF4, 100 nM | 95.5 ± 11
sgRNA knockout: sgATF4, 1000 nM | 110 ± 5.3
sgRNA knockout: sgATF4, 10000 nM | 97.2 ± 6.2
sgRNA knockout: sgATF6, 10 nM | 107 ± 24
sgRNA knockout: sgATF6, 100 nM | 107 ± 17
sgRNA knockout: sgATF6, 1000 nM | 98.9 ± 3.5
sgRNA knockout: sgATF6, 10000 nM | 96.2 ± 5.8
sgRNA knockout: sgATG7, 10 nM | 106 ± 27
sgRNA knockout: sgATG7, 100 nM | 103 ± 4.9
sgRNA knockout: sgATG7, 1000 nM | 116 ± 1.8
sgRNA knockout: sgATG7, 10000 nM | 100.5 ± 1
sgRNA knockout: sgERN1, 10 nM | 104 ± 18
sgRNA knockout: sgERN1, 100 nM | 101 ± 6.2
sgRNA knockout: sgERN1, 1000 nM | 111 ± 5.8
sgRNA knockout: sgERN1, 10000 nM | 97.9 ± 8.4
sgRNA knockout: sgHSF1, 10 nM | 125 ± 0.51
sgRNA knockout: sgHSF1, 100 nM | 110 ± 9.9
sgRNA knockout: sgHSF1, 1000 nM | 88.8 ± 14
sgRNA knockout: sgHSF1, 10000 nM | 78.3 ± 24
sgRNA knockout: sgHSF2, 10 nM | 108 ± 4.9
sgRNA knockout: sgHSF2, 100 nM | 118.32 ± 0.0061
sgRNA knockout: sgHSF2, 1000 nM | 109 ± 2.1
sgRNA knockout: sgHSF2, 10000 nM | 99.9 ± 5
sgRNA knockout: sgKEAP1, 10 nM | 99.7 ± 5.8
sgRNA knockout: sgKEAP1, 100 nM | 118 ± 5.9
sgRNA knockout: sgKEAP1, 1000 nM | 103 ± 2.8
sgRNA knockout: sgKEAP1, 10000 nM | 81.7 ± 11
sgRNA knockout: sgNFE2L2, 10 nM | 96.3 ± 22
sgRNA knockout: sgNFE2L2, 100 nM | 97.9 ± 6.6
sgRNA knockout: sgNFE2L2, 1000 nM | 109 ± 4.9
sgRNA knockout: sgNFE2L2, 10000 nM | 92.2 ± 1.9
sgRNA knockout: sgSLC35F2, 10 nM | 101 ± 25
sgRNA knockout: sgSLC35F2, 100 nM | 102 ± 3
sgRNA knockout: sgSLC35F2, 1000 nM | 117 ± 11
sgRNA knockout: sgSLC35F2, 10000 nM | 92.5 ± 9
sgRNA knockout: sgXBP1, 10 nM | 104 ± 30
sgRNA knockout: sgXBP1, 100 nM | 97.2 ± 5.5
sgRNA knockout: sgXBP1, 1000 nM | 112 ± 4.5
sgRNA knockout: sgXBP1, 10000 nM | 101 ± 9

CNC(=O)c1cc(Oc2ccc(NC(=O)Nc3ccc(Cl)c(C(F)(F)F)c3)cc2)ccn1 [Sorafenib]
Details | relative cell number
sgRNA knockout: sgATF3, 10 nM | 101 ± 8.1
sgRNA knockout: sgATF3, 100 nM | 126 ± 49
sgRNA knockout: sgATF3, 1000 nM | 126 ± 15
sgRNA knockout: sgATF3, 10000 nM | 53.9 ± 4.5
sgRNA knockout: sgATF4, 10 nM | 100 ± 5.6
sgRNA knockout: sgATF4, 100 nM | 129 ± 57
sgRNA knockout: sgATF4, 1000 nM | 133 ± 42
sgRNA knockout: sgATF4, 10000 nM | 53.5 ± 3.7
sgRNA knockout: sgATF6, 10 nM | 100 ± 2.4
sgRNA knockout: sgATF6, 100 nM | 100 ± 11
sgRNA knockout: sgATF6, 1000 nM | 125 ± 33
sgRNA knockout: sgATF6, 10000 nM | 60.9 ± 11
sgRNA knockout: sgATG7, 10 nM | 98 ± 7
sgRNA knockout: sgATG7, 100 nM | 127 ± 44
sgRNA knockout: sgATG7, 1000 nM | 124 ± 11
sgRNA knockout: sgATG7, 10000 nM | 54 ± 1.2
sgRNA knockout: sgERN1, 10 nM | 98.4 ± 1
sgRNA knockout: sgERN1, 100 nM | 154 ± 68
sgRNA knockout: sgERN1, 1000 nM | 121 ± 23
sgRNA knockout: sgERN1, 10000 nM | 60.1 ± 2.8
sgRNA knockout: sgHSF1, 10 nM | 98.9 ± 13
sgRNA knockout: sgHSF1, 100 nM | 115.5 ± 0.11
sgRNA knockout: sgHSF1, 1000 nM | 108 ± 25
sgRNA knockout: sgHSF1, 10000 nM | 68.1 ± 4.4
sgRNA knockout: sgHSF2, 10 nM | 96.9 ± 10
sgRNA knockout: sgHSF2, 100 nM | 118 ± 10
sgRNA knockout: sgHSF2, 1000 nM | 121 ± 3.6
sgRNA knockout: sgHSF2, 10000 nM | 64.5 ± 7.5
sgRNA knockout: sgKEAP1, 10 nM | 97.5 ± 20
sgRNA knockout: sgKEAP1, 100 nM | 115.8 ± 1.1
sgRNA knockout: sgKEAP1, 1000 nM | 146 ± 15
sgRNA knockout: sgKEAP1, 10000 nM | 62.3 ± 15
sgRNA knockout: sgNFE2L2, 10 nM | 99.9 ± 0.15
sgRNA knockout: sgNFE2L2, 100 nM | 134 ± 73
sgRNA knockout: sgNFE2L2, 1000 nM | 127 ± 26
sgRNA knockout: sgNFE2L2, 10000 nM | 52.7 ± 8.4
sgRNA knockout: sgSLC35F2, 10 nM | 94 ± 5.7
sgRNA knockout: sgSLC35F2, 100 nM | 128 ± 42
sgRNA knockout: sgSLC35F2, 1000 nM | 126 ± 25
sgRNA knockout: sgSLC35F2, 10000 nM | 62 ± 3.8
sgRNA knockout: sgXBP1, 10 nM | 92.5 ± 1.2
sgRNA knockout: sgXBP1, 100 nM | 132 ± 44
sgRNA knockout: sgXBP1, 1000 nM | 133 ± 34
sgRNA knockout: sgXBP1, 10000 nM | 54 ± 11
